Measured values reported in US20220288124A1.
No constants are given. Whether binding was seen depends on the method and setting. Binding calls can cover weak binding; strength is not graded here. For some of these results: Where a sequence is shown, tags or fusion partners need not be part of it.

Amino acid sequences for entries named in this document (tags omitted). A change or cut given only in a name is not applied to a line headed by its entry.
UniProt P51654: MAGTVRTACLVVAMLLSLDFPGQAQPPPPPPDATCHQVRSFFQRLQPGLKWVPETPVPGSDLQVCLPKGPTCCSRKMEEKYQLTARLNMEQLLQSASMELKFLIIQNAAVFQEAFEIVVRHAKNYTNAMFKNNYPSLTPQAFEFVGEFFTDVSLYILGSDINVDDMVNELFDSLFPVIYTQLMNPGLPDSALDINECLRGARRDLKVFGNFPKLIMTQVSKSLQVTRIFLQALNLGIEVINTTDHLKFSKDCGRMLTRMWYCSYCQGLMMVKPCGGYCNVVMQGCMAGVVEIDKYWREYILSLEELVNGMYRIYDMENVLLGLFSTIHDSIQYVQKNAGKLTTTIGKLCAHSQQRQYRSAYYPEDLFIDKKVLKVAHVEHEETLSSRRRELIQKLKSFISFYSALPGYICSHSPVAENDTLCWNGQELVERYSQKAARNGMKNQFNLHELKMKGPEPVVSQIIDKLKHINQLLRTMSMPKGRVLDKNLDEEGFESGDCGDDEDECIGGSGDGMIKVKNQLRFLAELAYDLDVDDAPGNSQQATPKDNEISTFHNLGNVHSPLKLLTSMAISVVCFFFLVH

Columns and labels:
[1] = molecular target: hGPC3-N fragment (AA1-358) (human) (UniProt P51654); assay: intracellular staining of transfected 293T cells
[2] = molecular target: hGPC3-N fragment (AA1-358) (human) (UniProt P51654); assay: staining of transfected 293T cells (as summarised in Example II)
[3] = molecular target: hGPC3-N fragment (AA1-358) (human) (UniProt P51654); assay: intracellular staining of 293T cells transfected with hGPC3-N or hGPC3-C (summary table)
[4] = molecular target: hGPC3-N fragment (AA1-358) (human) (UniProt P51654); assay: flow cytometry, intracellular staining of 293 cells transfected with hGPC3-N; gate set on untransfected cells
[5] = molecular target: hGPC3-N fragment (AA1-358) (human) (UniProt P51654); assay: flow cytometry, intracellular staining of 293T cells transfected with hGPC3-N; gate set on untransfected cells
[6] = molecular target: hGPC3-N fragment (AA1-358) (human) (UniProt P51654); assay: western blot of transfected 293 cells
[7] = molecular target: hGPC3-N fragment (AA1-358) (human) (UniProt P51654); assay: western blot of transfected 293 cells (figure legend)
[8] = molecular target: hGPC3-N fragment (AA1-358) (human) (UniProt P51654); assay: Western blot of 293 cells transfected with hGPC3 N-fragment

Measured: binding

B1: mAb 12D7 (mouse hybridoma antibody) (antibody, V domains shown)
VH: QVQLQQPGSELVRPGASVKLSCKASGYTFTSYWMHWVKQRLGQGLEWIGNIYPGSGSTNYDEKFKSKGTLTVDTSSSTAYMHLSSLTSEDSAVYYCTRGDYDWVFAYWGQGTLVTVSA
VL: DIVMTQSQKFMSTSVGDRVSVTCKASQNVGTNVAWYQQKPGQSPKALIYSASYRYSGVPDRFTGSGSGTDFTLTISNVQSEDLAEYFCQQYNSYPLTFGAGTKLELKR
binds: [1] | [2] | [3] | [4] | [5]

B2: recombinant mAb 12D7 (12D7 VL and VH fused to human IgG constant regions) (antibody, V domains shown)
VH: B1 VH
VL: B1 VL
binds: [6] | [7] | [8]

B3: mAb 6G11 (mouse hybridoma antibody) (antibody, V domains shown)
VH: QVQLQQPGSELVRPGASVKLSCKASGYTFTSCWMHWVKQRPGQGLEWIGNIYPGYGNTNYDEKFKNKATLTVDTSSSTAYMQLSGLTSEDSAVYYCTRGSYLYAMDYWGQGTSVTVSS
VL: DIQMNQSPSSLSASLGDTITITCHASQNINVWLSWYQQKPGNIPKLLIYKASNLHTGVPSRFSGSGSGTGFTLTISSLQPEDIATYYCQQGQSYPWTFGGGTKLEIKR
binds: [1] | [2] | [3] | [4] | [5]

B4: recombinant mAb 6G11 (6G11 VL and VH fused to human IgG constant regions) (antibody, V domains shown)
VH: B3 VH
VL: B3 VL
binds: [6] | [7] | [8]
